Results deposited as PubChem BioAssay AID652243 (Drosophila RNAi Screening Center, 2013)
In all, the deposit lists about 24,000 reagents; below is a random part of those that have a named target and a result. Of all reagents, 246 (1%) are marked active. 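Plates not normalised; calls are printed but the firefly/Renilla ratio behind them is not deposited; fold cut for lowering reported inconsistently.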 The raw values are shown without normalisation. Reagents against one gene are numbered here. Names joined by + are all predicted targets of the reagent. The record does not give: the amount of reagent.

Screen: 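Fly genes required for human androgen receptor driven transcription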 (primary screen)
System: Drosophila S2R+ cells
Reagent: long dsRNA against Drosophila genes
Duration: 72 h (48 h, then 24 h hormone)
Conditions: synthetic androgen R1881 at 10 nM for 24 h
Measurement: 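Firefly light from an androgen-responsive reporter and Renilla control light per well, raw and unnormalised, for each of two replicates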
Direction: firefly reporter light: higher = more light from androgen-responsive reporter; Renilla control light: higher = more constitutive control signal (cell number, transfection)
Rule for the call: 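Hit when the log firefly-to-Renilla ratio dropped or increased by a fixed fold versus the mean of GFP or LacZ controls across duplicate plates; lowering cut given as 1.5 and as 3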
Meaning of the calls: active = hit: reporter lowered or raised; inactive = no hit

| gene | reagent | firefly reporter light, replicate 1 | firefly reporter light, replicate 2 | Renilla control light, replicate 1 | Renilla control light, replicate 2 | activity call |
| --- | --- | --- | --- | --- | --- | --- |
| chn (charlatan) | 1 | 1.42e6 | 1.21e6 | 2.58e6 | 1.94e6 | inactive |
| chn (charlatan) | 2 | 2.46e5 | 4.43e5 | 8.88e5 | 8.88e5 | inactive |
| EMC1 (ER membrane protein complex subunit 1) | 1 | 59027 | 82796 | 4.63e5 | 4.39e5 | inactive |
| fz (frizzled) | 1 | 2.58e5 | 1.51e5 | 3.11e6 | 1.59e6 | inactive |
| fz (frizzled) | 2 | 8.18e5 | 6.95e5 | 1.96e6 | 1.29e6 | inactive |
| CG30467 | 1 | 92871 | 1.01e5 | 1.36e6 | 1.36e6 | inactive |
| CG4161 | 1 | 1.55e5 | 1.63e5 | 1.62e6 | 1.11e6 | inactive |
| CG4161 | 2 | 3.06e5 | 2.98e5 | 7.90e5 | 8.31e5 | inactive |
| Gr59d (Gustatory receptor 59d) | 1 | 7.90e5 | 7.26e5 | 1.19e6 | 1.03e6 | inactive |
| mora (morgana) | 1 | 1.64e5 | 2.74e5 | 2.17e6 | 2.64e6 | inactive |
| ken (ken and barbie) | 1 | 5.31e5 | 4.50e5 | 9.04e5 | 8.98e5 | inactive |
| shrb (shrub) | 1 | 8.45e5 | 1.08e6 | 1.03e6 | 1.37e6 | inactive |
| CG15554 | 1 | 1.62e5 | 1.77e5 | 2.04e6 | 1.96e6 | inactive |
| PCNA2 (Proliferating cell nuclear antigen 2) | 1 | 99691 | 1.13e5 | 1.44e6 | 1.55e6 | inactive |
| CG30345 | 1 | 2.00e5 | 2.23e5 | 3.46e5 | 3.52e5 | inactive |
| wrm1 + wrm2 | 1 | 2.33e5 | 1.44e5 | 8.06e5 | 6.61e5 | inactive |
| wrm1 + wrm2 | 2 | 9.03e5 | 1.16e6 | 8.36e5 | 8.25e5 | inactive |
| Vha100-4 (Vacuolar H[+] ATPase 100kD subunit 4) | 1 | 68410 | 96952 | 8.79e5 | 1.08e6 | inactive |
| Vha100-4 (Vacuolar H[+] ATPase 100kD subunit 4) | 2 | 1.97e5 | 2.60e5 | 6.65e5 | 6.92e5 | inactive |
| Mettl5 + CG42374 | 1 | 4.06e5 | 2.25e5 | 7.69e5 | 5.22e5 | inactive |
| CG18628 | 1 | 3.31e5 | 3.08e5 | 3.63e6 | 2.59e6 | inactive |
| Smox (Smad on X) | 1 | 3.87e5 | 2.07e5 | 1.04e6 | 4.47e5 | inactive |
| CG30001 | 1 | 2.15e5 | 2.04e5 | 6.03e5 | 5.13e5 | inactive |
| RabX6 | 1 | 1.28e5 | 1.18e5 | 1.40e6 | 1.48e6 | inactive |
| Pex16 (Peroxin 16) | 1 | 44340 | 98885 | 3.81e5 | 4.86e5 | inactive |
| pad (poils au dos) | 1 | 1.54e5 | 89578 | 2.71e6 | 2.70e6 | inactive |
| pad (poils au dos) | 2 | 1.94e5 | 2.16e5 | 8.35e5 | 5.49e5 | inactive |
| CG8677 + CG31626 | 1 | 3.89e5 | 5.17e5 | 3.18e6 | 3.60e6 | inactive |
| tra2 (transformer 2) | 1 | 9.71e5 | 6.31e5 | 2.01e6 | 1.77e6 | inactive |
| tra2 (transformer 2) | 2 | 4.66e5 | 3.62e5 | 1.24e6 | 1.53e6 | inactive |
| RpS10a (Ribosomal protein S10a) | 1 | 1.23e5 | 1.10e5 | 1.06e6 | 9.77e5 | inactive |
| RpS10a (Ribosomal protein S10a) | 2 | 2.75e5 | 2.19e5 | 5.47e5 | 4.39e5 | inactive |
| Gr8a (Gustatory receptor 8a) | 1 | 3.47e5 | 4.30e5 | 2.18e6 | 2.68e6 | inactive |
| CG14480 | 1 | 1.27e5 | 1.13e5 | 2.55e6 | 2.55e6 | inactive |
| CG6765 | 1 | 1.35e5 | 1.22e5 | 1.46e6 | 7.50e5 | inactive |
| CG6765 | 2 | 5.21e5 | 6.38e5 | 6.76e5 | 1.08e6 | inactive |
| mle (maleless) | 1 | 2.84e5 | 2.68e5 | 1.11e6 | 1.23e6 | inactive |
| alphaTub84D (alpha-Tubulin at 84D) | 1 | 40053 | 35712 | 1.90e6 | 1.69e6 | inactive |
| alphaTub84D (alpha-Tubulin at 84D) | 2 | 6.66e5 | 7.81e5 | 8.29e5 | 5.78e5 | inactive |
| alphaTub84D (alpha-Tubulin at 84D) | 3 | 6.85e5 | 6.44e5 | 1.83e6 | 1.38e6 | inactive |
| CG12824 | 1 | 4.56e5 | 3.00e5 | 3.21e6 | 2.07e6 | inactive |
| Gr98d (Gustatory receptor 98d) | 1 | 2.38e5 | 1.82e5 | 2.41e6 | 2.80e6 | inactive |
| Gr98d (Gustatory receptor 98d) | 2 | 6.19e5 | 5.97e5 | 4.62e5 | 5.58e5 | inactive |
| Cf2 + CG3008 | 1 | – | – | – | – | inactive |
| Klc (Kinesin light chain) | 1 | 9.45e5 | 5.84e5 | 1.03e6 | 9.86e5 | inactive |
| Klc (Kinesin light chain) | 2 | 4.19e5 | 2.68e5 | 5.37e5 | 5.32e5 | inactive |
| NaPi-T (Na[+]-dependent inorganic phosphate cotransporter) | 1 | 1.43e5 | 1.24e5 | 2.46e6 | 2.46e6 | inactive |
| NaPi-T (Na[+]-dependent inorganic phosphate cotransporter) | 2 | 4.89e5 | 3.95e5 | 4.76e5 | 4.66e5 | inactive |
| CG30109 + CG30108 | 1 | 2.59e5 | 2.48e5 | 2.99e5 | 2.78e5 | inactive |
| lin-28 | 1 | 1.98e5 | 1.81e5 | 2.20e6 | 1.76e6 | inactive |
| CG31343 | 1 | 61266 | 79478 | 9.73e5 | 1.05e6 | inactive |
| CG10226 | 1 | 1.05e6 | 8.42e5 | 9.90e5 | 1.16e6 | inactive |
| CG32259 | 1 | 1.06e5 | 1.37e5 | 3.95e5 | 3.98e5 | inactive |
| CG15199 | 1 | 6.69e5 | 4.58e5 | 3.76e6 | 3.03e6 | inactive |
| CG16756 | 1 | 2.69e5 | 2.28e5 | 1.71e6 | 1.82e6 | inactive |
| Cht9 (Chitinase 9) | 1 | 9.12e5 | 9.28e5 | 2.40e6 | 2.52e6 | inactive |
| Cht9 (Chitinase 9) | 2 | 8.32e5 | 9.56e5 | 9.50e5 | 1.08e6 | inactive |
| TTLL1A (Tubulin tyrosine ligase-like 1A) | 1 | 56718 | 85378 | 5.18e5 | 4.30e5 | inactive |

9 entries already listed, ordered by “firefly reporter light, replicate 2”, lowest first:
| gene | reagent | firefly reporter light, replicate 1 | firefly reporter light, replicate 2 | Renilla control light, replicate 1 | Renilla control light, replicate 2 | activity call |
| --- | --- | --- | --- | --- | --- | --- |
| PCNA2 (Proliferating cell nuclear antigen 2) | 1 | 99691 | 1.13e5 | 1.44e6 | 1.55e6 | inactive |
| CG4161 | 1 | 1.55e5 | 1.63e5 | 1.62e6 | 1.11e6 | inactive |
| CG15554 | 1 | 1.62e5 | 1.77e5 | 2.04e6 | 1.96e6 | inactive |
| CG30345 | 1 | 2.00e5 | 2.23e5 | 3.46e5 | 3.52e5 | inactive |
| mora (morgana) | 1 | 1.64e5 | 2.74e5 | 2.17e6 | 2.64e6 | inactive |
| CG4161 | 2 | 3.06e5 | 2.98e5 | 7.90e5 | 8.31e5 | inactive |
| ken (ken and barbie) | 1 | 5.31e5 | 4.50e5 | 9.04e5 | 8.98e5 | inactive |
| Gr59d (Gustatory receptor 59d) | 1 | 7.90e5 | 7.26e5 | 1.19e6 | 1.03e6 | inactive |
| shrb (shrub) | 1 | 8.45e5 | 1.08e6 | 1.03e6 | 1.37e6 | inactive |
